Measurements reported in article PMC7819943, “Rice protein-binding microarrays: a tool to detect cis-acting elements near promoter regions in rice”.
This is one part of the list.

biological target: T1, OsSMF1 (Oryza sativa, UniProt Q6ZLB0 1-436); assay: protein-binding microarray (RPBM); PBS, 2% BSA, 51.3 ng/ul salmon testes DNA, 50 uM zinc acetate, 200 nM TF, 25 C, 1 h; high values mean tight binding; details: protein: recombinant; tags: N-terminal polyhistidine and DsRed monomer fusion (pET32a); chain copies: 2; label: CyDye5-dUTP incorporated in the synthesized complementary strand; 3' TTTTT single-stranded linker to array surface; dsDNA, one strand shown
T1 sequence: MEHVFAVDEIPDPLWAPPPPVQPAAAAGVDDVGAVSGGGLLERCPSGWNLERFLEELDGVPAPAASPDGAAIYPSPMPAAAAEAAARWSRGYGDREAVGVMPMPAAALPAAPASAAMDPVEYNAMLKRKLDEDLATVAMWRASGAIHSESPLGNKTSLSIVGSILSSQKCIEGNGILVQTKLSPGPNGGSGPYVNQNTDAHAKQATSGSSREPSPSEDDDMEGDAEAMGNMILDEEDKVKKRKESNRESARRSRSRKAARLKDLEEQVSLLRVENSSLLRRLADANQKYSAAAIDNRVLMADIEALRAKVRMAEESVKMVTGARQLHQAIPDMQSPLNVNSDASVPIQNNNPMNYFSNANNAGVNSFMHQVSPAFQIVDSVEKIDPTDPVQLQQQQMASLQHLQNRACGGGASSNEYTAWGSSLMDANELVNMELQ
Summary of the method: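 The binding signal for each feature is its fluorescence intensity in arbitrary units. An Axon 4000B scanner was used to read a custom Agilent array that had been made double-stranded with Cy5-dUTP primer extension, blocked with 2% BSA, incubated at 25 °C for 1 h with 200 nM protein in PBS, 2% BSA, salmon testes DNA and 50 µM zinc acetate, and washed. The protein was an N-terminal polyhistidine–DsRed transcription factor fusion from E. coli BL21-CodonPlus, purified on Ni–NTA.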

Sequence | binding signal
ACTGCAACTTTCGTGGCTCCACTGGCCCCGGATCCCATCACGGAGTCACCTAGTGCAG | 4710 fluorescence intensity (a.u.)
TATATCACTATATCAGAATCTGGTGAAGCCTCTGAATCATCGGAGTCACCTAGTGCAG | 3600 fluorescence intensity (a.u.)
GGTTCTGAATACCAATGCACGTCAATATTGTACCTTAGCTCGGAGTCACCTAGTGCAG | 4130 fluorescence intensity (a.u.)
CCTTCTTCTTTTGCGGTTGCGCGAGCACGTCGGTCGTGCGCGGAGTCACCTAGTGCAG | 4220 fluorescence intensity (a.u.)
TATATATATACTCCTACGTAGGAACCAAGCGTATACGTACCGGAGTCACCTAGTGCAG | 3850 fluorescence intensity (a.u.)
CGACGCCAAGTACGTGTAGACACACGAGGAGACGGTCGCTCGGAGTCACCTAGTGCAG | 3490 fluorescence intensity (a.u.)
CTTGTACTCTTTTCTCTCTACACAGTCAGGCACATCACTGCGGAGTCACCTAGTGCAG | 4800 fluorescence intensity (a.u.)
ATACTGAGTTATGTAGAGATACATTGTCATTATAGTTATGCGGAGTCACCTAGTGCAG | 4050 fluorescence intensity (a.u.)
TATAATTGCTACGTAAGCGCCACGTCAATGCCATGTCAGACGGAGTCACCTAGTGCAG | 15700 fluorescence intensity (a.u.)
TTAACGTAAGGAGCAGATGATGTGGAAGAGATAAGCGAGTCGGAGTCACCTAGTGCAG | 3470 fluorescence intensity (a.u.)
AGATTGTACTTTATACCACGTACACGCGTAAAAGTCATCCCGGAGTCACCTAGTGCAG | 4370 fluorescence intensity (a.u.)
TATTAAAACTTGGCCGACAGGAAGCACGTGGCGCCGGTGGCGGAGTCACCTAGTGCAG | 6170 fluorescence intensity (a.u.)
GGCTCCACTTCAACAACTTGCACACAAGCTCCAAGCAACGCGGAGTCACCTAGTGCAG | 4640 fluorescence intensity (a.u.)
GGAAGCAACAAGTGGAGGCATCGGACCAAACATTTCATCCCGGAGTCACCTAGTGCAG | 11000 fluorescence intensity (a.u.)
TGTTCGTCGCCGCCATCCCACTGACTACCTCGACATAGTTCGGAGTCACCTAGTGCAG | 3900 fluorescence intensity (a.u.)
ATGTCAGTGACACATGAGACTCCTCCTCCGTGCTCCGTAACGGAGTCACCTAGTGCAG | 3660 fluorescence intensity (a.u.)
AAGGCGCCACGTGGCACTAACGGCTATTTGACCGTTCAAACGGAGTCACCTAGTGCAG | 21300 fluorescence intensity (a.u.)
CCCTTCGTCGACACGCACCCCTGACCTCATATTTTCGCTTCGGAGTCACCTAGTGCAG | 5650 fluorescence intensity (a.u.)
ACTAGGGTACCAGGGTAACAGGTATTAGCCTGGTAACCAACGGAGTCACCTAGTGCAG | 3480 fluorescence intensity (a.u.)
GTACATGCATACTGCTAAGACTATAACTAACATGGTTATTCGGAGTCACCTAGTGCAG | 23000 fluorescence intensity (a.u.)
GCCTTGTCACCAGTCATCAGTCCACTCATCCCCATGCCCCCGGAGTCACCTAGTGCAG | 5050 fluorescence intensity (a.u.)

Sequence | binding signal
GGAAGGCGTTTGATGTGGCAAAACTCATTGGGTCACTGTGCGGAGTCACCTAGTGCAG | 5920 fluorescence intensity (a.u.)
TATAATTGATGTACATCGATGATTAATTCTCTAACAGATCCGGAGTCACCTAGTGCAG | 29700 fluorescence intensity (a.u.)
ATTATGTTACGTTGTTTCGCTGTGTCACACATGTACCAGACGGAGTCACCTAGTGCAG | 5720 fluorescence intensity (a.u.)
GGGTGGGCGTGATGGAGTTGGGTCGGCCGGGGTGTCCGGTCGGAGTCACCTAGTGCAG | 3220 fluorescence intensity (a.u.)
AGAGAGCAGTGGAGTGCTGTCAGCCGTTGGATGGCCATCCCGGAGTCACCTAGTGCAG | 3400 fluorescence intensity (a.u.)
ACATCATCGGCTACGTCAGGTCCAGCGCCGCCGCCAAGGCCGGAGTCACCTAGTGCAG | 6640 fluorescence intensity (a.u.)
CACTTTCTGAACCTCTGAATTTTGTGGCTGCACACTGAAACGGAGTCACCTAGTGCAG | 3480 fluorescence intensity (a.u.)
GCCGGCCTGGGAGGCCGAAGGTTGGGGATGACAGGTGGGGCGGAGTCACCTAGTGCAG | 3160 fluorescence intensity (a.u.)
AGGGCAAAATTTGATAGAGCTTTTAGAATCCCAAACATCACGGAGTCACCTAGTGCAG | 29400 fluorescence intensity (a.u.)
CGAAGTGCTTGGCCCCGAACCGGTGCGTGTACCGCCCCTGCGGAGTCACCTAGTGCAG | 6160 fluorescence intensity (a.u.)
CACGAGTGCCTCTCCGTCATGCTCCACGACAGCTGCAGCCCGGAGTCACCTAGTGCAG | 4760 fluorescence intensity (a.u.)
GACCAGCGCGGGAGGCGAGCTCGGCGGCTGACGCAGAAGACGGAGTCACCTAGTGCAG | 3230 fluorescence intensity (a.u.)
TGAAAATTTGATATATCATTTGCAACGTGGATAAATGAGACGGAGTCACCTAGTGCAG | 4130 fluorescence intensity (a.u.)
TCTGTTGACATGGCATCTCTGGACATTGCTGATCAGTGTGCGGAGTCACCTAGTGCAG | 6710 fluorescence intensity (a.u.)
CCACGTCGACGGCCTCACCGTGTCCGGCGGCACCCTCGACCGGAGTCACCTAGTGCAG | 18400 fluorescence intensity (a.u.)
GTGCCGGGGTGCCTAACCCAGTGACGCACCGAGCCGGGTTCGGAGTCACCTAGTGCAG | 3570 fluorescence intensity (a.u.)
TGGCGCGGTGGGCGCGGGCATTCTGCGTCATCCGCTTCGACGGAGTCACCTAGTGCAG | 7020 fluorescence intensity (a.u.)
GTATATCTTCAAAGGTGACAGTGCTGACAGCTTCTTGGCACGGAGTCACCTAGTGCAG | 3760 fluorescence intensity (a.u.)
TATGTTAGCGGTTCTCATTGAGAGAGCTAAATGCGATGGTCGGAGTCACCTAGTGCAG | 3350 fluorescence intensity (a.u.)
CTCCTCCGCCGCAACGTTCGCCGCATCCACGCGTCGGCGCCGGAGTCACCTAGTGCAG | 5120 fluorescence intensity (a.u.)
GTCCCGTATGCATGCAACTAGACAACCAAGATAGTCATCACGGAGTCACCTAGTGCAG | 7030 fluorescence intensity (a.u.)

In another format: results already given.
TGGCGCGGTGGGCGCGGGCATTCTGCGTCATCCGCTTCGACGGAGTCACCTAGTGCAG
  binding signal = 7020 fluorescence intensity (a.u.)
GTATATCTTCAAAGGTGACAGTGCTGACAGCTTCTTGGCACGGAGTCACCTAGTGCAG
  binding signal = 3760 fluorescence intensity (a.u.)
TATGTTAGCGGTTCTCATTGAGAGAGCTAAATGCGATGGTCGGAGTCACCTAGTGCAG
  binding signal = 3350 fluorescence intensity (a.u.)
